Results are given in words; binding and its absence hold for the method and conditions named. A result given as binding can be weak or reduced; the word gives no strength.
Biological target: monomeric carbohydrate-recognition domain (CRD) from DC-SIGN (UniProt Q9NNX6)
Test: radioligand binding; competition: CRD of DC-SIGN immobilised on polystyrene wells, 125I-labeled mannose-BSA as reporter ligand, competing ligand titrated; KI = concentration for 50% inhibition; both purified

The chains behind the UniProt entries cited, without tags or fusion partners. Where a name states a change or a piece, a line headed by the entry shows the natural chain unless it says otherwise. Residues count along the entry.
UniProt Q9NNX6: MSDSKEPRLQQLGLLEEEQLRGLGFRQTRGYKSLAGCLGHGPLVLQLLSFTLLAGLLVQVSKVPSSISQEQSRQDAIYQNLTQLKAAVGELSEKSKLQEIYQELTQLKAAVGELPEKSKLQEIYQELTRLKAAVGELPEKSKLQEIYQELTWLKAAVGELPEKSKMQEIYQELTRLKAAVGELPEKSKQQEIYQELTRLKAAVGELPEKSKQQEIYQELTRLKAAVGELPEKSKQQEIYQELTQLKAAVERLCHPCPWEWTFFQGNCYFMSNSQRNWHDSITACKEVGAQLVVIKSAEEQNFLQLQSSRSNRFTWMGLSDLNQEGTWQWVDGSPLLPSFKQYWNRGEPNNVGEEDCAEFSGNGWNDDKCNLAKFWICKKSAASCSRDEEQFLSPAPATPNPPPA
UniProt P02769, residues 25-607: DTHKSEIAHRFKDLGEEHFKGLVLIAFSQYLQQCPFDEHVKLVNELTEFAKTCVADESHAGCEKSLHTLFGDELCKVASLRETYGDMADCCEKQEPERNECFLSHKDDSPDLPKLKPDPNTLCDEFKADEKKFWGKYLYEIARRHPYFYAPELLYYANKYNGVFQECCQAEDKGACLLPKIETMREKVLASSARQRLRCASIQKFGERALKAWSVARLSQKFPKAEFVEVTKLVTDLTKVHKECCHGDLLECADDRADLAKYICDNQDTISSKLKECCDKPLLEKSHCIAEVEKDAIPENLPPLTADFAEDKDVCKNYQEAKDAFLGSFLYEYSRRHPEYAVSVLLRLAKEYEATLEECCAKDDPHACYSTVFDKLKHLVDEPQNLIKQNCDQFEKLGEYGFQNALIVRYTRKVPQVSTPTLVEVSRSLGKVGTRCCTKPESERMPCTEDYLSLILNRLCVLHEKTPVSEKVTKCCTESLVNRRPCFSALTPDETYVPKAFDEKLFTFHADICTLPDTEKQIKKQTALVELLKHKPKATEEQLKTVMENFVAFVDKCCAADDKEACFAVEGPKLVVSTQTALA

125I-labeled mannose-BSA (from UniProt P02769 25-607)
binding: binds
